# The campaign covered roughly 340,000 compounds. About 170 (0.05%) were called active. Inconclusive means that the source gave no clear call. Such entries were picked first, then a sample of the others. The call rests on the fitted dose curve; in most records, active means well fitted inhibition curve with a large enough effect in the signal ratio, with a control signal flat (not every such curve was filed as active); inconclusive means small, poorly fitted or top-dose-only effect, or effect the other way, or a change in a side signal; inactive means flat fitted curve, though single readings scatter; the % refers to the signal ratio. Where the call is inconclusive, the potency comes from a doubtful curve fit.
# Assay: qHTS Assay to Find Inhibitors of Chronic Active B-Cell Receptor Signaling;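 on activity change, negative = inhibition: plate controls were basal doxycycline-induced cells for no effect and cells given 10 µM MG132 for full effect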
# Details: ABC-DLBCL IkBa-CBG/CBR reporter, luminescence ratio (green luciferase fused to IkBa over red control in TMD8 lymphoma cells), 4 h; activity change, negative = inhibition: at 46.1 µM (top of the series)
# Procedure, shortened: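 TMD8 ABC-DLBCL cells carrying doxycycline-inducible green luciferase fused to IkappaBalpha plus unfused red luciferase were exposed to compounds (up to 46 uM) for 4 hrs at 37C. Activity came from the overlap-corrected green/red luminescence ratio.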
# Potency means the concentration at half of the fitted maximal effect.
SMILES,"activity change, negative = inhibition",Potency
COc1ccc(/C=C/C(=O)NC(=S)Nc2ccccc2)cc1OC,inactive,
C=CCc1ccc(OCC(O)COc2ccc(CC=C)cc2OC)c(OC)c1,,"inconclusive: 17.8 µM [falling, single point]"
Cc1ccccc1OCC(=O)NC1=NCCS1,,"inconclusive: 29.1 µM [falling, single point]"
CCNc1nc(SCC(=O)OC)nc(N(C)C)n1,inconclusive: -3.39%,
Cc1c(NS(=O)(=O)CC23CCC(CC2=O)C3(C)C)c(=O)n(-c2ccccc2)n1C (stereo not given),inactive,
CCOC(=O)N1CCN(S(=O)(=O)c2ccc(C(=O)N(CCN(C)C)c3nc4ccc(Cl)cc4s3)cc2)CC1,inactive,
CCCC1CCC(c2ccc(C(N)=O)cc2)CC1 (stereo not given),inactive,
C=C(C)CNC(=S)NNC(=O)CCn1c2ccccc2c2ccccc21,,"inconclusive: 14.6 µM [falling, partial curve, poor fit]"
Cc1ccc(NC(=S)NCCC(c2ccccc2)c2ccccc2)c(C)c1,inconclusive: 7.13%,
Cc1ccc(OCC(=O)c2c(O)c3ccccc3oc2=O)cc1C,,"inconclusive: 0.501 µM [falling, full curve, poor fit]"
COc1ccc(C(=O)O/N=C(/C)c2cccs2)cc1,,"inconclusive: 16.4 µM [rising, partial curve, poor fit]"
CC(C)Nc1nc2cccnc2s1,inconclusive: -0.0192%,
COc1ccc(NC(=O)CCNS(=O)(=O)c2cc(Br)ccc2Br)cc1S(N)(=O)=O,inconclusive: -2.6%,
Cc1nc(COC(=O)c2cc(O)c3ccccc3c2O)cs1,inconclusive: -2.31%,
O=[N+]([O-])c1ccc(/C=N/Nc2ccc3ccccc3c2)o1,inconclusive: 11.4%,
FC(F)(F)c1nc(Oc2ccccc2)c2ccccc2n1,inconclusive: 10.9%,
COCCNC(=O)c1cc2c(-c3ccc(Cl)cc3)nn(C)c2s1,inconclusive: -2.59%,
COC(=O)c1sc(-c2ccccc2)cc1NC(=O)c1ccc(OC)cc1,inconclusive: -1.44%,
CCOC(=O)Nc1cccc(NC(=O)c2cc(OC)cc(OC)c2)c1,,"inconclusive: 2.59 µM [falling, full curve]"
CNc1ncnc2ccc(-c3c(C)noc3C)cc12,,"inconclusive: 20.6 µM [rising, single point]"
Cc1ccc(S(=O)(=O)NC2CC(C)(C)NC(C)(C)C2)cc1,inactive,
COc1ccc(OC)c(NC(=O)CSc2nc3c(c(=O)n(C)c(=O)n3C)n2C)c1,inactive,
CC(=O)N1CC=C2C(C#N)=C(N)C(C#N)(C#N)C(CCc3ccccc3)C2C1 (stereo not given),inconclusive: -13.5%,
CC1=NOC(=O)/C1=C\c1ccc(-c2ccc(Cl)cc2Cl)o1,inactive,
CSc1nc2ccc3nc(NC(=O)C4COc5ccccc5O4)sc3c2s1 (stereo not given),inconclusive: 2.93%,
COc1ccccc1CN1CCN(S(=O)(=O)c2ccccc2)CC1,inconclusive: 5.44%,
CCOC(=O)CSc1nc(N)c2c3c(sc2n1)CCCC3,,"inconclusive: 29.1 µM [falling, single point]"

SMILES,"activity change, negative = inhibition",Potency
COc1ccc(N2CCN(C(=O)COC(=O)c3ccc(Cl)nc3)CC2)cc1,inconclusive: -0.214%,
COc1cc(/C=N/Nc2nc3ccccc3o2)cc(OC)c1O,,"inconclusive: 32.6 µM [falling, single point]"
COc1ccccc1CNC(=O)c1cc2c(=O)[nH]c3ccccc3c2n1C,inconclusive: -21.3%,
OC(CNCc1ccccc1)(c1ccc(F)cc1)c1ccc(F)cc1,inconclusive: -7.37%,
CC(C)CNC(=O)CCCc1c[nH]c2ccccc12,,"inconclusive: 15.8 µM [falling, single point]"
CC(C)c1ccccc1NC(=S)NC1CCCCC1,inconclusive: 10.2%,
COc1ccc(NC(=O)CN2C(=O)CSc3ccc(S(=O)(=O)N(C)C)cc32)cc1OC,inconclusive: 9.44%,
Cc1ccc(NC(=O)C2CCN(S(=O)(=O)c3ccc4ccccc4c3)CC2)nc1,inconclusive: 1.79%,
CC1CCN(C(=O)c2cc3c(ccc4ccccc43)o2)CC1,,"inconclusive: 25.1 µM [falling, single point]"
C=C1CCC[C@]2(C)C[C@H]3OC(=O)C(CNC(C)CC)[C@H]3CC12 (stereo not given in full),,"inconclusive: 25.1 µM [falling, single point]"
Cc1cc(C)c2c(-n3cccc3)c(NC(=O)OC(C)C)sc2n1,inconclusive: 4.55%,
COc1ccc(NS(=O)(=O)c2cccc(-c3n[nH]c(=S)n3Cc3ccccc3)c2)cc1,inactive,
COc1ccccc1-n1cc(-c2ccc([N+](=O)[O-])cc2)[nH]c1=S,inconclusive: 9.09%,
Cn1nc(C(=O)Nc2cccc(S(=O)(=O)N3CCCC3)c2)c2ccccc2c1=O,inconclusive: -2.91%,
COc1ccc(C(=O)c2ncc(C(F)(F)F)cc2Cl)cc1,inactive,
Cc1noc(C)c1C(=O)N1CCC(CO)(Cc2ccccc2)CC1,inconclusive: -4.25%,
CCc1cccc(NC(=O)C2CCCN2S(=O)(=O)c2cccc3cccnc23)c1 (stereo not given),,"inconclusive: 17.8 µM [falling, partial curve, poor fit]"
Cc1nc(Nc2ccccc2C(F)(F)F)sc1C(=O)N(C)C,inconclusive: -1.75%,
CC1CCCN(S(=O)(=O)c2ccc(NC(=O)Cn3nnc(-c4ccccc4F)n3)cc2)C1 (stereo not given),inactive,
CC(=O)N(C)Cc1ccc(C(=O)CCl)cc1,inconclusive: 16.6%,
CN(C)C(=O)c1cc(C(=O)c2ccc(F)cc2F)c[nH]1,inconclusive: -7.33%,
COc1ccc(OC)c(N(C(=O)c2ccco2)C(C(=O)NC2CCCC2)c2cc(OC)c(OC)c(OC)c2)c1 (stereo not given),inactive,
FC(F)(F)c1ccc(Cl)c(NC(=S)N/N=C/c2ccccc2C(F)(F)F)c1,inconclusive: 3.72%,
O=C(c1ccc2nccnc2c1)N1CCN(c2ccccc2)CC1,inactive,
CC(C)(C)c1[nH]nc2c1C(Cc1ccccc1)C(C#N)=C(N)O2 (stereo not given),inconclusive: 3.96%,
CC(C(=O)N1CCCCC1)N1CCN(S(=O)(=O)c2ccc(Cl)cc2)CC1 (stereo not given),inactive,
CCN(CC)S(=O)(=O)c1cc(NS(=O)(=O)c2c(Cl)cccc2Cl)ccc1C,inconclusive: 5.82%,

SMILES,"activity change, negative = inhibition",Potency
CCOc1ccccc1N(CC(=O)Nc1ccccc1)S(=O)(=O)c1ccccc1,inactive,
O=C(c1ccco1)N1CCN=C1SCc1ccccc1Cl,inconclusive: -2.2%,
Cn1c(CN2CCOCC2)nc2cc(NC(=O)c3ccc(Cl)cc3)ccc21,inconclusive: -12.4%,
O=C(Nc1ncccc1Cl)c1ccc2c(c1)OCCO2,,"inconclusive: 14.1 µM [falling, single point]"
CCn1ncc(/C=N\NC(=O)c2cc(-c3ccc(C)cc3C)nc3ccccc23)c1C,,"inconclusive: 1.64 µM [falling, partial curve, poor fit]"
COc1ccc(S(=O)(=O)N2CCN(CC(=O)Nc3cc(Cl)ccc3Cl)CC2)cc1,inactive,
COC(=O)c1c(NC(NC(=O)CC(C)C)C(Cl)(Cl)Cl)sc2c1CCC2 (stereo not given),inconclusive: 8.11%,
CCCCCCN(C(=O)CCCCCN1C(=O)NC(c2ccc(-c3ccccc3)cc2)C(C(=O)OCc2ccccc2)=C1C)C(C(=O)NCCCC)c1ccc(OCC(=O)OC)cc1 (stereo not given),inconclusive: 2.02%,
C=CC[C@H](CC(=O)N(CCO)Cc1ccccc1)C(=O)N[C@@H](COC(=O)[C@@H](CC=C)Cc1ccc(F)cc1)Cc1c[nH]c2ccccc12,inconclusive: -5.67%,
COc1ccc(CC(=O)N2CCN(c3cccc(C)c3C)CC2)cc1,inactive,
Cc1cc2nc(SCC(=O)Nc3ccccc3C(=O)O)[nH]c2cc1C,inconclusive: -1.99%,
COc1ccc(/C=C/c2c(-c3ccc(OC)cc3)oc3cccnc23)cc1,,"inconclusive: 22.4 µM [falling, partial curve]"
CN(C)c1oc(/C=C/c2ccccc2)nc1C#N,inconclusive: 4.61%,
Cc1cn2c(=O)c(C(=O)N3CCN(c4ccccc4)CC3)cnc2s1,inconclusive: 5.04%,
CCOC(=O)N1CCN(C(=O)c2cc(COc3cccc(C(C)=O)c3)on2)CC1,inactive,
O=C(Nc1cccc(C(=O)O)c1)Nc1cccc2ccccc12,,"inconclusive: 25.1 µM [falling, single point]"
Cc1cc(C)c(C#N)c(SCC2COc3ccccc3O2)n1 (stereo not given),inconclusive: 7.95%,
Cc1ccc(S(=O)(=O)N2CCCC(c3nc(-c4ccc(C)o4)no3)C2)cc1 (stereo not given),inconclusive: -0.891%,
c1ccc(CSc2n[nH]c(-c3ccco3)n2)cc1,,"inconclusive: 29.1 µM [falling, single point]"
COc1ccc(/C(N)=N/OC(=O)CCC2CCCC2)cc1,inconclusive: -1.63%,
COc1cc(SC)ccc1C(=O)N1CCN(c2ccccc2OC)CC1,inactive,
COc1ccc(N2C(=O)CC(Nc3cccc(C(C)=O)c3)C2=O)cc1OC (stereo not given),inconclusive: 12.1%,
C=C(C)COc1ccc(-c2nc(N)ncc2Oc2ccc(OC)cc2)c(O)c1,,"inconclusive: 7.08 µM [falling, partial curve, poor fit]"
O=C(O)c1ccc(/C=N/Nc2ncc(Cl)cc2Cl)cc1,,"inconclusive: 22.4 µM [falling, partial curve]"
O=C(COC(=O)c1ccccc1Br)Nc1cc(S(=O)(=O)N2CCOCC2)ccc1N1CCCC1,,"inconclusive: 35.5 µM [falling, single point]"
O=c1[nH]c(-c2ccc3c(c2)OCO3)nc2c1sc(=S)n2-c1ccccc1,,"inconclusive: 22.4 µM [falling, single point]"

# Whole records from above.
# O=C(O)c1ccc(/C=N/Nc2ncc(Cl)cc2Cl)cc1 in the list: Potency: inconclusive: 22.4 µM [falling, partial curve]
# O=C(Nc1ncccc1Cl)c1ccc2c(c1)OCCO2 in the list: Potency: inconclusive: 14.1 µM [falling, single point]
# O=c1[nH]c(-c2ccc3c(c2)OCO3)nc2c1sc(=S)n2-c1ccccc1 in the list: Potency: inconclusive: 22.4 µM [falling, single point]

# Reference: PubChem BioAssay AID493014 (National Center for Advancing Translational Sciences (NCATS), 2011)
